PubChem BioAssay AID504791, Drosophila RNAi Screening Center | 2011

Aim: 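Factors in Argonaute-based small RNA production and activity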 (primary screen)
System: Drosophila S2-derived reporter cells
Reagent: long dsRNA against Drosophila genes, about 150-250 ng dsRNA per well (siRNA assay); about 80-120 ng (miRNA assay)
Duration: about 5 days (siRNA assay); about 4 days (miRNA assay)
Challenge: copper sulfate induction of reporters: 25 µM (siRNA assay); 200 mM stated (miRNA assay), 1-2 days before reading
Read-out: 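Per-well ratio of Renilla over firefly light, expressed relative to that plate's average ratio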
Hit rule: 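a well was a first-pass pick when its plate-scaled ratio rose above 1.5 (siRNA assay) or 1.6 (miRNA assay), or dropped below 0.6; a gene counted only if two separate dsRNAs agreed on retest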
The deposit covers about 23,000 reagents; this is a random part of those that have a named target and a result. Of all reagents, 199 (0.86%) are marked active. 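Plate-scaled ratios behind the calls are not deposited; printed light signals are raw; many rows marked increased or decreased are still called inactive.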 The record does not give: the direction of the score.

no.	Gene	DRSC id	stable siRNA reporter change	stable assay Renilla, run 1 (luminescence)	stable assay firefly, run 1 (luminescence)	Outcome
1	CG15530	DRSC15067		6211	4.44e5	inactive
2	CG33769	DRSC11716		8425	4.67e5	inactive
3	CG3457	DRSC18509		8916	6.12e5	inactive
4	cv (crossveinless)	DRSC17833		4454	2.99e5	inactive
5	CG4393	DRSC15573		6455	3.53e5	inactive
6	rho-5 (rhomboid-5)	DRSC02847		3867	3.95e5	inactive
7	CG16719	DRSC10222		7794	4.12e5	inactive
8	CG32532	DRSC19556		6166	3.82e5	inactive
9	CG32532	DRSC19557		5632	3.53e5	inactive
10	CG32532	DRSC19558		5588	3.47e5	inactive
11	CG32532	DRSC21370		8715	5.16e5	inactive
12	Hrd3 (HMG-coA reductase degradation 3)	DRSC14156		8546	4.74e5	inactive
13	Abcd1 (ATP binding cassette subfamily D member 1)	DRSC17157	reporter ratio raised past the hit cutoff	21194	4.75e5	inactive
14	pb (proboscipedia)	DRSC12409		6487	4.30e5	inactive
15	pb (proboscipedia)	DRSC12629		5704	3.74e5	inactive
16	Nepl4 (Neprilysin-like 4)	DRSC03239		56019	4.53e5	inactive
17	Srp9 (Signal recognition particle 9)	DRSC10973		6122	4.49e5	inactive
18	RnrL (Ribonucleoside diphosphate reductase large subunit)	DRSC03413		56797	4.83e5	inactive
19	Eogt (EGF-domain O-GlcNAc transferase)	DRSC00727		10496	5.69e5	inactive
20	HmgZ (HMG protein Z)	DRSC03888		5646	5.35e5	inactive
21	HmgZ (HMG protein Z)	DRSC04620		4748	5.05e5	inactive

Taken from above:
For “Outcome”, HmgZ (HMG protein Z) [DRSC04620] has inactive
Result for rho-5 (rhomboid-5) [DRSC02847] in “stable assay Renilla, run 1 (luminescence)”: 3867
Value for Nepl4 (Neprilysin-like 4) [DRSC03239] in “stable assay Renilla, run 1 (luminescence)”: 56019
Result for pb (proboscipedia) [DRSC12629] in “stable assay firefly, run 1 (luminescence)”: 3.74e5

The listing continues.
no.	Gene	DRSC id	stable siRNA reporter change	stable assay Renilla, run 1 (luminescence)	stable assay firefly, run 1 (luminescence)	Outcome
22	ATPsynF (ATP synthase, subunit F)	DRSC04482		20082	2.07e6	inactive
23	CG33543	DRSC00384		7534	4.17e5	inactive
24	CG33543	DRSC00385		7656	5.41e5	inactive
25	CG10237	DRSC02029		15845	1.62e6	inactive
26	RabX5	DRSC08608		6755	4.37e5	inactive
27	CG3342	DRSC18304		7200	3.78e5	inactive
28	CG10147	DRSC09706		5447	3.57e5	inactive
29	CG9922	DRSC16579		6410	2.91e5	inactive
30	CG6144	DRSC02934		5675	6.03e5	inactive
31	Dhc98D (Dynein heavy chain at 89D)	DRSC16645		6083	3.59e5	inactive
32	zyd (zydeco)	DRSC20716		5263	2.85e5	inactive
33	CCHa1-R (CCHamide-1 receptor)	DRSC06456		5514	2.88e5	inactive
34	CCHa1-R (CCHamide-1 receptor)	DRSC06715		5818	2.94e5	inactive
